Test [1] addresses CTNNA1-V5 (purified mouse CTNNA1 with C-terminal V5 tag) (mouse) (UniProt P26231). In words: pull-down; ctrl, CTNNA1-V5 (no ATP) or ubiquitylated CTNNA1-V5 baits on V5-Trap magnetic agarose, incubated overnight at 4 °C with lysate of HEK293T, MDCK, MEFs or HEK293T expressing Flag-CTNNA1 or Flag-CTNNA2, immunoblot; only the target purified. On the technique in general: Immunoblotting shows a protein as a band on a membrane.

By UniProt entry, the sequences of proteins in these tests, tags left out.
UniProt P26231: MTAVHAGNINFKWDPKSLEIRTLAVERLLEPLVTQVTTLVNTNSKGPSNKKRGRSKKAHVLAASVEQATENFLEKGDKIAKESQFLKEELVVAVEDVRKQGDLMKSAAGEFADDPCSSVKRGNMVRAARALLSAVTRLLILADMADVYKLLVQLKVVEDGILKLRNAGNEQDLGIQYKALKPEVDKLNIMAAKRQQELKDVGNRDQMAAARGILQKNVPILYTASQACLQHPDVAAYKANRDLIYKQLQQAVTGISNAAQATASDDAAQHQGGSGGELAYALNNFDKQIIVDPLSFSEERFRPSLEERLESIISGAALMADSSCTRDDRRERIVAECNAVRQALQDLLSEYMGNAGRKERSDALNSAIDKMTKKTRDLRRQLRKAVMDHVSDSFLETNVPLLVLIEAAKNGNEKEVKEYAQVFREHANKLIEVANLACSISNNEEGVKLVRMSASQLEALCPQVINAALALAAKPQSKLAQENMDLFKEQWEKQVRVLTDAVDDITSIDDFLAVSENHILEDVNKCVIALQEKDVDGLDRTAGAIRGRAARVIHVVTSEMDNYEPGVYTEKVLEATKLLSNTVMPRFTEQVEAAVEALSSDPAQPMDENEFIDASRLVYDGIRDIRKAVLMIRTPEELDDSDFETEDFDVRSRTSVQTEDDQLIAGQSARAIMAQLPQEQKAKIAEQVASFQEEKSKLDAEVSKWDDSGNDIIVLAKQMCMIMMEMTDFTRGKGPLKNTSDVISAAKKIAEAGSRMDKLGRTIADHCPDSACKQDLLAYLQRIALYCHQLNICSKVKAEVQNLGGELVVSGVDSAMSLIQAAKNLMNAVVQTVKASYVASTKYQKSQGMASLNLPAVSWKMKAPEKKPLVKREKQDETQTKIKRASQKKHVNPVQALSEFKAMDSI

In test [2] the target is Flag-tagged CTNNA1 (full-length mouse Ctnna1) (mouse) (UniProt P26231). In words: co-IP; co-expression of tagged full-length or truncated proteins in transfected cells (36 h), anti-Flag M2 affinity gel 90 min at 4 °C, immunoblot.
The target of test [3] is T1, Flag-CTNNA2 (full-length human CTNNA2) (human) (UniProt P26232).
T1 sequence: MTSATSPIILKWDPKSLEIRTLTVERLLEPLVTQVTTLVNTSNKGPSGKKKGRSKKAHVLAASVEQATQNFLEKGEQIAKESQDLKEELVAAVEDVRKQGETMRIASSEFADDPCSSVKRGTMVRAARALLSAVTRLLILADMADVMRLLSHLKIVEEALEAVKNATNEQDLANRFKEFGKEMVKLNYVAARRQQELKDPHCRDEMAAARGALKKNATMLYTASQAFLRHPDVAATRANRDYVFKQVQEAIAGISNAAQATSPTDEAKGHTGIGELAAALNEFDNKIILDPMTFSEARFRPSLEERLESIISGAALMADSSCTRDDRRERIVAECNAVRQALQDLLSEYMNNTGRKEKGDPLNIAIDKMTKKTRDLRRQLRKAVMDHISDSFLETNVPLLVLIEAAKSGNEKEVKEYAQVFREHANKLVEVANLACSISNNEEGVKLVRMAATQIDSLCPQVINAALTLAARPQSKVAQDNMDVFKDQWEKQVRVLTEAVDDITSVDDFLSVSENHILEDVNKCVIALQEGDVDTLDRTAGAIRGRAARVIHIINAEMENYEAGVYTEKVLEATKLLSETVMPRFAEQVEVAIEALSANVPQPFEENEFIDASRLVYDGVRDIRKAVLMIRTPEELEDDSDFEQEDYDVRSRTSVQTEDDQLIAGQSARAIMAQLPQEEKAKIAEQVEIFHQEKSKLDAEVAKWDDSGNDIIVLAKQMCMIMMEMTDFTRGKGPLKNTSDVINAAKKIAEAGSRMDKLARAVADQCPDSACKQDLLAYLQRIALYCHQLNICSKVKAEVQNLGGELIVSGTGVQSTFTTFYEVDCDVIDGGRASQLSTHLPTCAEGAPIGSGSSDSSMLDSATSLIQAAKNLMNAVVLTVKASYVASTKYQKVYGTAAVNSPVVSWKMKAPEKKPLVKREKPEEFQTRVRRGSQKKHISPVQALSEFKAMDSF
The description is as above.

No constants are given. Whether binding was seen depends on the method and setting. Binding seen in cells or lysates may run through a third protein. Some binding calls cover weakened binding; strength is not graded here. Where a sequence is shown, tags or fusion partners need not be part of it.

Turning to “endogenous β-catenin of mouse embryonic fibroblasts (from UniProt Q02248 1-781)”, in test [1], the binding result is reported as “binds”. On the same count and under the same terms, then “endogenous β-catenin (CTNNB1) of HEK293T cells (from UniProt P35222 1-781)”, with “binds”.

B1: Flag-CTNNA2 (full-length human CTNNA2) (protein, UniProt P26232 1-953)
chain: T1 sequence
On to B1, for which the binding result in test [1] is recorded as “binds”.

B2: endogenous β-catenin of MDCK cells (protein, UniProt B6V8E6 1-781)
chain: MATQADLMELDMAMEPDRKAAVSHWQQQSYLDSGIHSGATTTAPSLSGKGNPEEEDVDTTQVLYEWEQGFSQSFTQEQVADIDGQYAMTRAQRVRAAMFPETLDEGMQIPSTQFDAAHPTNVQRLAEPSQMLKHAVVNLINYQDDAELATRAIPELTKLLNDEDQVVVNKAAVMVHQLSKKEASRHAIMRSPQMVSAIVRTMQNTNDVETARCTAGTLHNLSHHREGLLAIFKSGGIPALVKMLGSPVDSVLFYAITTLHNLLLHQEGAKMAVRLAGGLQKMVALLNKTNVKFLAITTDCLQILAYGNQESKLIILASGGPQALVNIMRTYTYEKLLWTTSRVLKVLSVCSSNKPAIVEAGGMQALGLHLTDPSQRLVQNCLWTLRNLSDAATKQEGMEGLLGTLVQLLGSDDINVVTCAAGILSNLTCNNYKNKMMVCQVGGIEALVRTVLRAGDREDITEPAICALRHLTSRHQEAEMAQNAVRLHYGLPVVVKLLHPPSHWPLIKATVGLIRNLALCPANHAPLREQGAIPRLVQLLVRAHQDTQRRTSMGGTQQQFVEGVRMEEIVEGCTGALHILARDVHNRIVIRGLNTIPLFVQLLYSPIENIQRVAAGVLCELAQDKEAAEAIEAEGATAPLTELLHSRNEGVATYAAAVLFRMSEDKPQDYKKRLSVELTSSLFRTEPMAWNETADLGLDIGAQGEPLGYRQDDPSYRSFHSGGYGQDALGMDPMMEHEMGGHHPGADYPVDGLPDLGHAQDLMDGLPPGDSNQLAWFDTDL
Turning to B2, in test [1], the binding result is listed as “binds”.

B3: UBE2O-Myc (full length, expressed in cells) (enzyme, UniProt Q9C0C9 1-1292)
chain: MADPAAPTPAAPAPAQAPAPAPEAVPAPAAAPVPAPAPASDSASGPSSDSGPEAGSQRLLFSHDLVSGRYRGSVHFGLVRLIHGEDSDSEGEEEGRGSSGCSEAGGAGHEEGRASPLRRGYVRVQWYPEGVKQHVKETKLKLEDRSVVPRDVVRHMRSTDSQCGTVIDVNIDCAVKLIGTNCIIYPVNSKDLQHIWPFMYGDYIAYDCWLGKVYDLKNQIILKLSNGARCSMNTEDGAKLYDVCPHVSDSGLFFDDSYGFYPGQVLIGPAKIFSSVQWLSGVKPVLSTKSKFRVVVEEVQVVELKVTWITKSFCPGGTDSVSPPPSVITQENLGRVKRLGCFDHAQRQLGERCLYVFPAKVEPAKIAWECPEKNCAQGEGSMAKKVKRLLKKQVVRIMSCSPDTQCSRDHSMEDPDKKGESKTKSEAESASPEETPDGSASPVEMQDEGAEEPHEAGEQLPPFLLKEGRDDRLHSAEQDADDEAADDTDDTSSVTSSASSTTSSQSGSGTSRKKSIPLSIKNLKRKHKRKKNKITRDFKPGDRVAVEVVTTMTSADVMWQDGSVECNIRSNDLFPVHHLDNNEFCPGDFVVDKRVQSCPDPAVYGVVQSGDHIGRTCMVKWFKLRPSGDDVELIGEEEDVSVYDIADHPDFRFRTTDIVIRIGNTEDGAPHKEDEPSVGQVARVDVSSKVEVVWADNSKTIILPQHLYNIESEIEESDYDSVEGSTSGASSDEWEDDSDSWETDNGLVEDEHPKIEEPPIPPLEQPVAPEDKGVVISEEAATAAVQGAVAMAAPMAGLMEKAGKDGPPKSFRELKEAIKILESLKNMTVEQLLTGSPTSPTVEPEKPTREKKFLDDIKKLQENLKKTLDNVAIVEEEKMEAVPDVERKEDKPEGQSPVKAEWPSETPVLCQQCGGKPGVTFTSAKGEVFSVLEFAPSNHSFKKIEFQPPEAKKFFSTVRKEMALLATSLPEGIMVKTFEDRMDLFSALIKGPTRTPYEDGLYLFDIQLPNIYPAVPPHFCYLSQCSGRLNPNLYDNGKVCVSLLGTWIGKGTERWTSKSSLLQVLISIQGLILVNEPYYNEAGFDSDRGLQEGYENSRCYNEMALIRVVQSMTQLVRRPPEVFEQEIRQHFSTGGWRLVNRIESWLETHALLEKAQALPNGVPKASSSPEPPAVAELSDSGQQEPEDGGPAPGEASQGSDSEGGAQGLASASRDHTDQTSETAPDASVPPSVKPKKRRKSYRSFLPEKSGYPDIGFPLFPLSKGFIKSIRGVLTQFRAALLEAGMPECTEDK
Regarding B3, the binding entry in test [2] and in test [3] was “binds” throughout.

Values taken from publication PMC12635394, “UBE2O-mediated ubiquitylation directs cytoplasmic CTNNA1 to promote cell-to-ECM adhesions” (EMBO Reports, 2025).
